# The whole screen tested about 31,000 sequences, of which about 1,400 (4.5%) were called active.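 The calls were made as follows: active = median seed-adjusted z-score above 1 or below -1; inactive = the rest.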 Some of the results follow.
# Assay: Novel Modifiers of Survival Motor Neuron (SMN) Protein: Gene Identification via Genome-wide siRNA Screen;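 also: luminescence tracks full-length SMN protein made from the SMN2 reporter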
# Details: HEK293T SMN2-luciferase reporter, siRNA knockdown, 72 h; actives lie on both sides
# Outline: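 Each of three siRNAs per gene is reverse-transfected (1 pmol) into reporter HEK293T cells whose luciferase output tracks SMN protein level. After 72 h culture, ONE-Glo luminescence is control-normalized, log10-transformed and MAD-standardized; Common Seed Analysis deprioritizes seed-driven hits.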
row,Sequence,median seed-adjusted z-score
1,GAGAGUUCACUAAAGGAAATT against ITPKB,inactive: -0.142
2,UACACAACCUUGGAAGAUUTT against DDX19B,inactive: -0.298
3,GCACAGGCAAUGUUCGCAATT against MEP1A,inactive: 0.209
4,AAGACGAACUUGAGCUGGATT against MAPK8IP1,inactive: 0.576
5,CCAUAAUAAUGAAUGACUATT against SEC11C,inactive: 0.508
6,GGAAAUCAUCUUUACGGAATT against DONSON,inactive: -0.882
7,CUACCUCUAUAUCACCAAATT against KDELR1,inactive: -0.0168
8,GCUAAUCCUUAACUAUCCATT against NF1,inactive: -0.36
9,GAAGUCAGAGCGUAAGAAATT against GNA15,inactive: 0.582
10,GUCACAUCUUUUUCAUACATT against CHST9,inactive: 0.252
11,UGACCACACUUCUCAGCUATT against IL9R,active: -1.33
12,GCAUCUACUUCAACCGUUUTT against GRK6,inactive: -0.862
13,GAGUGUACAAAGGAAGUUATT against SLCO1A2,inactive: -0.2
14,GGACUACCACCAAUUCUAATT against ATP5B,inactive: 0.393
15,GGCGAGAUGUUGACAUACUTT against ADCY1,inactive: 0.154
16,CGGUAGGUCAUGUCUGUAATT against SULT1A1,inactive: -0.26
17,GCAACGACCUGAAGAUCGATT against ATXN1,inactive: -0.024
18,GAUUGAGUUUAUUUCAACATT against GGH,inactive: -0.105
19,GCUACUUGAUUGCGACCAATT against ADRBK2,inactive: 0.148
20,CCCAUAAUAUCAUUGAGAATT against SREBF2,inactive: -0.606
21,GGUGAAUGCUGAUGACUCUTT against CLDN16,inactive: -0.868
22,GAACAUCGAGAUGCACAAATT against AES,inactive: -0.478
23,CGUGAUUGACUAUGAGGAATT against GRM6,inactive: -0.0544

# Look-ups from the results shown:
# Value for GCAACGACCUGAAGAUCGATT against ATXN1 under median seed-adjusted z-score: inactive: -0.024
# Value for GGCGAGAUGUUGACAUACUTT against ADCY1 under median seed-adjusted z-score: inactive: 0.154
# Value for GAAGUCAGAGCGUAAGAAATT against GNA15 under median seed-adjusted z-score: inactive: 0.582
# Value for GAGUGUACAAAGGAAGUUATT against SLCO1A2 under median seed-adjusted z-score: inactive: -0.2
# Value for GCUACUUGAUUGCGACCAATT against ADRBK2 under median seed-adjusted z-score: inactive: 0.148
# Value for GAGAGUUCACUAAAGGAAATT against ITPKB under median seed-adjusted z-score: inactive: -0.142

# Remaining list, next part:

row,Sequence,median seed-adjusted z-score
1,GAAGGACUCUCUACAGAAATT against LPO,inactive: 0.201
2,UGAGCACAAUCAAGUCUAATT against BRD4,active: 1.13
3,ACACCAAUGUGCUCCGCUATT against TTC9B,inactive: -0.272
4,GCAUUGUCACAUAAUUGAATT against NOTCH2NL,inactive: 0.586
5,CAACAGUGAUGUAACUAUUTT against PARD6G,inactive: 0
6,CCAAGAGAAUACAAGUUCUTT against RNF138,inactive: 0.265
7,GGAGAGCAAUACAUCAUCATT against GLRX2,inactive: -0.244
8,CCAGUGUCAUAAACCUGUATT against NUDT4,inactive: -0.0306
9,GGCAUAUGGUUAUCGAGGATT against EML4,inactive: 0.958
10,GCAUCGUUCUGCAGAUUGATT against KRT18,inactive: 0.558
11,GGUUUUCAGUCGUAAAUCATT against ZNF611,inactive: -0.0392
12,GGGAGGUAGUAAUCCUACATT against PPP1R12B,inactive: 0.416
13,GCAUCGACAUAAAGCUGGATT against KIF1C,inactive: 0.749
14,GAUUGAUACAGGCACUAUATT against GMEB1,inactive: 0.198
15,CAUUUUACCUGGGUACCAATT against PARS2,inactive: -0.433
16,GCUUUAACCCGGUGCUCUATT against XCR1,inactive: -0.292
17,GGAUCAGCGUAGUAUAAUUTT against OSBPL10,inactive: 0.247
18,CAUCCAGCCCUUUUCCUUUTT against LRFN2,inactive: 0
19,CGACAUGAUUAAUGGUACATT against CD36,inactive: -0.000845
20,CGAUGGAGCUCUAUCAAAUTT against ISG20,inactive: 0.0209
21,UGAGAUUUCGGAAUCAGAATT against TSPAN31,active: -1.13
22,CGUUGAUUCUGAUGGAUCATT against ACAD9,inactive: -0.384
23,AAACCGCCCUACUCUUACATT against FOXB2,inactive: -0.0149

row,Sequence,median seed-adjusted z-score
1,CGAGUUCGGUGGGUCAAUATT against SLC12A1,inactive: -0.406
2,GCAUAAUUGCCUUUUCCUATT against ADRA2A,inactive: -0.65
3,GGAGCUCCAGGGUUCAUAATT against ADRB3,inactive: 0.17
4,CACCACAAAUAAUAGCGAATT against TRPA1,inactive: 0.341
5,GAGACUUCCUAAACAGGUATT against TRIM26,inactive: 0
6,GCGACCCUGUUAUUCUGUATT against TM9SF1,inactive: 0.14
7,CAAGAUCCAGGACACCAAATT against MAP4K1,inactive: 0
8,CCGUCUACACGGACUUCGATT against PIM1,inactive: -0.409
9,CAGUGCUACUUGGAAUGUUTT against RHOJ,inactive: -0.304
10,GGAGGCCUACUGUCCAUUATT against PIGC,inactive: -0.3
11,GGUAGAGACCUAUCUAAAATT against GTPBP8,inactive: 0.834
12,GAUCCUAUGAAAACCUAUATT against PRKG1,inactive: 0
13,CAACCCAACCAACACCAUUTT against OSBPL10,inactive: 0.247
14,AGAGCUGACUUACACGUGUTT against CD84,inactive: 0.629
15,CCUUUAGCUUUAUACACGATT against TDRD5,inactive: -0.0961
16,AGGACAUGUUUGCACUACUTT against MGC29506,inactive: 0
17,CAGGCUUACUUCUAGCUUUTT against CRB1,inactive: 0
18,CAUCAAACCUGGGAACAAATT against ZNF225,inactive: 0.0761
19,ACAAUAUCCAGGACCACAATT against DAO,inactive: -0.00887
20,GGCGUGAAAUGACUAGAUUTT against ABCD3,inactive: -0.24
21,GCCUGAUCGUAUUACACUUTT against PPP6C,inactive: -0.0212
22,GCAUCGCAAACUUCACCAATT against ACLY,inactive: 0.478
23,GGAAGAAGAUAUUCGGGAATT against MYBL1,inactive: 0.344
